Source: patent publication US8518715B2, “Bifunctional polyazamacrocyclic chelating agents” (Nordion (Canada) Inc., priority 2006, dated 2013)
Some results were stated once for a whole list of compounds, not compound by compound.

Tests used:
Type in all cases: physicochemical
[1] = Effect of [ligand]/[177Lu3+] on the percent complexation; conditions: molar ratio of ligand/^177Lu^3+ of 5:1, after 60 minutes
Experimental: (§1) A polyazamacrocyclic ligand ((L)-p-NO2-Bz-PCTA; (D)-p-NO2-Bz-PCTA; (L)-p-NCS-Bz-PCTA; (±)-p-NO2-Bz-DOTA, (±)-NPCTA, (±)-OXO and (L)-p-NO2-Bz-OXO) was combined with a metal ion (^90Y^3+, ^111In^3+, ^177Lu^3+) at room temperature in buffer at a molar ratio of the ligand to the metal ion of 100:1 for kinetic studies, 200:1 for stability studies or at values ranging from 2:1 to 200:1 for the molar ratio studies.
(§2) Complexation studies involving ^90Y^3+ and ^111In^3+ were conducted with 50-100 mM sodium acetate buffer, pH 5.0-7.0, while complexation studies involving ^177Lu^3+ were performed with 50 mM-100 mM sodium acetate buffer, pH 4-5.
(§3) 1 μL samples were taken at 10 minute intervals for kinetic studies, after 60 minutes in experiments studying the effect of the value of [ligand]/[metal ion] on the % complexation of the ligand, and at spaced intervals of 1-3 days for experiments studying the stability of complexes formed using the ligand of the present invention. […] The silica gel paper is cut in half and each half is measured in a gamma well counter. […] Each result shown in FIGS. 4-9 is the average of three separate trials.

[2] = Effect of [ligand]/[90Y3+] on the percent complexation
Experimental: as §1, §2, §3

[3] = Effect of [ligand]/[111In3+] on the percent complexation; conditions: molar ratio of ligand/^111In^3+ of 2:1, after 60 minutes
Experimental: as §1, §2, §3

[4] = Kinetics of complexation of polyazamacrocyclic ligand with 111In3+; conditions: ^111In^3+, ligand:metal 100:1
Experimental: as §1, §2, §3

[5] = Kinetics of complexation of polyazamacrocyclic ligand with 177Lu3+; conditions: ^177Lu^3+, ligand:metal 100:1, 10 minutes
Experimental: as §1, §2, §3

SMILES	percent complexation [1]	percent complexation ([2]; molar ratio of ligand/^90Y^3+ of 2:1, after 60 minutes)	percent complexation ([2]; molar ratio of ligand/^90Y^3+ of 5:1 or above, after 60 minutes)	percent complexation [3]	maximum values of complexation [4]	percent complexation after 10 minutes [5] [%]
O=C(O)CN1CCN(CC(=O)O)C[C@@H](Cc2ccc([N+](=O)[O-])cc2)N(CC(=O)O)Cc2cccc(n2)C1 [(D)-p-NO2-Bz-PCTA, 2,2′,2″-((4R)-4-(4-nitrobenzyl)-3,6,9,15-tetraazabicyclo[9.3.1]pentadeca-1(15),11,13-triene-3,6,9-triyl)triacetic acid]	greater than 95%	–	–	–	–	–
O=C(O)CN1CCN(CC(=O)O)C[C@H](Cc2ccc([N+](=O)[O-])cc2)N(CC(=O)O)Cc2cccc(n2)C1 [(L)-p-NO2-Bz-PCTA, 2,2′,2″-((4S)-4-(4-nitrobenzyl)-3,6,9,15-tetraazabicyclo[9.3.1]pentadeca-1(15),11,13-triene-3,6,9-triyl)triacetic acid]	–	above 95%	above 95%	above 95%	greater than 95%	> 95
